# PubChem BioAssay AID1347423 (Functional Genomics Laboratory (NCATS/FGL), 2020)
# About 210 (0.4%) of roughly 52,000 sequences were called active.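 Rule for the calls: active = gene whose silencing raises cell survival under the drug, median off-target-corrected z-score across its silencing RNAs 2 or more; inactive = the rest.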 This is one part of the list.
# Assay: Resistance to Poly (ADP-Ribose) Polymerase inhibitor: Gene Identification via Genome-wide siRNA Screen
# Details: mouse BRCA2 R2336H ES cells, olaparib, CellTiter-Glo viability; active compounds read high
# Procedure, shortened: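 Genome-wide siRNA screen (3 siRNAs/gene, 20 nM) in mouse ES cells carrying hypomorphic BRCA2 R2336H; olaparib 500 nM added 48 h post-transfection, CellTiter-Glo viability 72 h later. Normalized to plate-median negative control; MAD z-scores, gene median, seed-adjusted.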
row,Sequence,z-score
1,GCUAAUUAAACGAAGCAUCTT against Lmo4,inactive: -0.349
2,GGGACCUGUCGUCAGACUUTT against Gnb3,inactive: -1.39
3,CCGAAAUUUUGAGUACUGUTT against V1re10,inactive: 1.36
4,GGACCAUCUGUCCACAGUUTT against 9030617O03Rik,inactive: -2.05
5,GGCUUUCAAUGAUUAGACATT against Ptpn20,inactive: 0.609
6,GGCCUGAAAGACGAAGAGATT against Stk38,inactive: -1.3
7,CCACACCAAGGACUUAUGGTT against Cd164l1,inactive: -1.44
8,GGCGGAACACAUGACUAGGTT against Ilf3,inactive: 1.06
9,GCCGGAAUGCCCUAAUUUCTT against Olfr684,inactive: 2
10,GGAAAGUUCUAAUGUUCAUTT against Sumo1,inactive: -1.39
11,GGUUCCAUGUGACAGUAGCTT against A930013K19,inactive: 2.04
12,CCUAAGGCUGAAGCGGAGATT against Dusp9,inactive: 0.444
13,GGAGAUGUAUAAGAAAGCUTT against Rpl5,inactive: -2.16
14,GGAAAGUUCCCAUGUUCUCTT against 4933406M09Rik,inactive: -1.43
15,CCGAUGCGCAAGUAAAAACTT against Tlx1,inactive: 1.56
16,GCAGCUUAGUGAUUUGAAATT against Tex21,inactive: -0.421
17,GGUAUUAGCAUGUACCUUCTT against Olfr138,inactive: -1.62
18,GGUUCUGGACUUCAUCCUCTT against 4833422F24Rik,inactive: 2.14
19,GCUGUUCAUACCUAGUGGGTT against BC019206,inactive: -0.819
20,GGCGAAGAUUGAAAAAUGCTT against Ube3c,inactive: 0.972
21,CCUAUACAAGUAGGCAAUATT against 2310044G17Rik,inactive: -2.41
22,GCUUAAAUUCUGUUCCAACTT against Ddx42,inactive: -2.08
23,GGUGCUCAAAGAAUGCAUUTT against Prkar1b,inactive: -0.607
24,GGCAACCAGUUGAAAUAUUTT against Mbnl3,inactive: -1.33
25,GGCUUUUCUAGUUCCUCAATT against 9130207N01,inactive: -0.899
26,CAAGAUGAUUAUUAGAGAGTT against LOC380907,inactive: 0.121

row,Sequence,z-score
1,GGAGAUUGAAGAGUUUGACTT against Rangap1,inactive: -1.39
2,CGGUUUGAGUAUAUUGGAGTT against Sh3d19,inactive: -0.0374
3,GCCGUAACUCUUGACAAUGTT against Stoml2,inactive: -1.32
4,CCCUGCCUUCUGUUGAGAATT against 4930451I11Rik,inactive: -0.0526
5,CGCAGGAUAUUUCUAUCCATT against Prlpn,inactive: -0.152
6,GCGUGGAGUCUUCAGUCAUTT against Vhlh,inactive: 0.976
7,GGCUCAAGACUUAAAUUCATT against Olfr1100,inactive: 0.00946
8,CGCCUUUUGGAAACGCAAATT against Sh3bp4,inactive: -0.514
9,GGCUAUGUACAAGACUAUGTT against Eif3s1,inactive: 0.504
10,GGUCAAAGAACAAAAAGAATT against Ly64,inactive: -0.59
11,GCGCAUAUUUUAUCAACUCTT against Plcb3,active: 1.31
12,CCACCGUCUAUUUCAUUGUTT against Adora3,inactive: -0.683
13,CCUCUAGGUCAUUUUACCUTT against Scmh1,inactive: -0.281
14,GGUUGUGCAGUUUUAUUUCTT against Tceal1,inactive: -0.679
15,GGUCAGAAGAGAUCAAAAGTT against 1600012K10Rik,inactive: -0.0376
16,GGUCUUAUCAAGAAGUGUATT against Cpt1b,inactive: -1.98
17,GGCAGCUGGAUCUCUUUGATT against Txnl5,inactive: -0.0989
18,GGUUUUGUUACAAUAAAGGTT against Fbxl6,inactive: 0.426
19,GGAGAGCUGGAACAAUAGCTT against Bcl2l2,active: 2.66
20,CCAACCAAAUCGUCGCCAUTT against Cdk7,inactive: -1.68
21,GGAUAAUGACCAACCUUCUTT against Fbxo7,inactive: -1.81
22,GGCACAGGUUCCUUUUGAATT against Myct1,inactive: -0.647
23,GGGCCAUUCAAACCACCAGTT against Vav3,inactive: -1.01
24,CCUUUUUGGGUUGCUCUGUTT against Slc39a1,inactive: -0.253
25,GCUAACGAUAUUUAUCACGTT against Olfr385,inactive: 0.561
26,GGGAGAGAGAAAUUCAUAATT against Mtpn,inactive: -2.04

# Single entries from the list:
# z-score, GGACCAUCUGUCCACAGUUTT against 9030617O03Rik is entered as inactive: -2.05
# z-score, GCAGCUUAGUGAUUUGAAATT against Tex21 is entered as inactive: -0.421

# Later entries

row,Sequence,z-score
1,CCAUAAAAACCAGAGAAAUTT against Plekhf2,inactive: 0.374
2,GGUCUACGUGGCCAAAGUGTT against Txndc5,inactive: -2.1
3,CGACAUGGGAUUUGGCUUGTT against Rplp2,inactive: -2.47
4,GCUCGUACAGAAAUACGUCTT against Psmc2,inactive: 0.0275
5,GCCUUAUCCAUAUCGACUATT against Arrdc1,inactive: 2.55
6,GGAUAUCGAAGUGACAUCUTT against Rae1,inactive: -1.48
7,GGACAGUCUUUAGCUGAAATT against Slc2a10,inactive: 1.53
8,CCACGGAGAUGAAAUGCCUTT against Umpk,inactive: 0.929
9,GGAAAUAAUCAGGUUUAUCTT against Col4a3,inactive: -0.281
10,CCUGGCAGUAAUCACCAUUTT against Olfr1158,inactive: -0.361
11,GGAAACAGAACAAGAUGUATT against Tnfsf13b,inactive: -1.05
12,GGGCAAUUAGUAAAGGCUATT against Eif2s3x,inactive: -1.15
13,GGAGCCGAAAAAGAUGACCTT against D11Ertd730e,inactive: -0.651
14,GGAAAUGAGCAAAACUUUUTT against Pcdhb22,inactive: 1.65
15,GGAGAAAGCUCAGCAUACATT against Usp3,inactive: -0.372
16,GGAUUGAAGAGAAUUUACCTT against 5730419I09Rik,inactive: 0.00715
17,CGAGCUAGAAGAGCUUCCATT against Hdgfrp2,inactive: -1.97
18,GGUCGUUACAGAAGAGUUUTT against Mageh1,inactive: 1.57
19,CCUUCAGAAGUCGACUUGUTT against Rpl37,inactive: -3.28
20,GCCGAGAUGAGCUCCUAAUTT against Krt1-c29,inactive: -0.0719
21,GGGCAGAAAAUCAUUUGUUTT against Anxa11,inactive: -1.29
22,GGAGAUCCAGGCAAUUUUUTT against Pink1,inactive: 0.908
23,GUGGUUUAACAUGAAGUCATT against A530094I17Rik,inactive: -0.685
24,GGUGCAAGUUCCCAUUAUATT against Mcpt7,inactive: 0.747
25,GCUGAAGUUUACUAUAACATT against Marco,inactive: 0.663
26,GGUGGUCUGGUUCAAGGAUTT against Mylk,inactive: -0.558

row,Sequence,z-score
1,CCCUUAAUCUUGCAUACUUTT against 7030401O21Rik,inactive: 0.545
2,GGCCUGCAUAGAUGAGAACTT against Ppp1r12c,inactive: -0.701
3,GUCUAUCCAGCAUCCUUGCTT against Prss19,inactive: 0.708
4,GGUGCAUUCUUAGUAUACUTT against D230012E17Rik,inactive: -2.23
5,GGACACAUUCGAAUGAACCTT against Mkrn2,inactive: 0.532
6,GGUCCUACAGGAGAAGAUCTT against Tekt2,inactive: -0.0665
7,GGUUCCUUAAUCACUUUGCTT against Ndufa9,inactive: -0.991
8,GGAAGAACUUCAGGAAAAUTT against Micl,inactive: 1.41
9,GGGUAUACCUAUCAUAGUATT against BC020354,inactive: 0.0881
10,GCAAUGAAUUCUAUUAUGGTT against Plrg1,inactive: -2.57
11,GGAUUAGUCAUCAUCUUCATT against Gabrb2,inactive: -0.0587
12,GGAGAAGCCUCAUCAACCATT against A930008G19Rik,inactive: -0.715
13,GGGCAAGAUGUUUUUCUUCTT against 0610009O03Rik,inactive: 0.0444
14,GGACCUAAACAACGUGUUGTT against Klf2,inactive: 0.679
15,GCAUCCCAAGCUUAAAGCGTT against Malt1,inactive: 1.14
16,CCCAGUGUGAACAGAGGCATT against Xlr3a,inactive: -1.6
17,CCAUUCAAGUAAAUGAACCTT against Efhc2,inactive: -0.291
18,GGUCUGUCGGAAAAUCUGGTT against Hrbl,inactive: -0.608
19,GCAUAAACAGUGAAGCCACTT against Suv39h2,inactive: 0.931
20,GCCUUAUCUAAAAGCCAAGTT against 2610318C08Rik,inactive: -0.294
21,GGACAUCUGUGUUUAUUCATT against Tcfcp2,inactive: 1.49
22,GCAUUGAAGAUCGAACACGTT against Fbxl11,inactive: -0.551
23,GGUGAAAGACCAUUUAUUUTT against BC003332,inactive: 0.283
24,GGACUUAUCUCAUCCAAGATT against C630010N09,inactive: 0.308
25,ACAAGUUUGAUACCGAAUUTT against Chic1,inactive: -0.478
26,GCGAAGAGUCAAAUCCAUCTT against 5830472H07Rik,inactive: 2.06

# Part of the list above, reformatted:
row	Sequence	z-score
17	CCAUUCAAGUAAAUGAACCTT against Efhc2	inactive: -0.291
18	GGUCUGUCGGAAAAUCUGGTT against Hrbl	inactive: -0.608
19	GCAUAAACAGUGAAGCCACTT against Suv39h2	inactive: 0.931
